This passage reports binding results from publication PMC4802042.

No constants are given. Whether binding was seen depends on the method and setting. In cells and extracts the contact can be indirect. Binding can be weak; no strength is given. Tags and fused reporters may be left off the sequences shown.

The target of the experiment is T1, (Myc)-MKP7, full-length (human) (UniProt Q9BY84).
T1 sequence: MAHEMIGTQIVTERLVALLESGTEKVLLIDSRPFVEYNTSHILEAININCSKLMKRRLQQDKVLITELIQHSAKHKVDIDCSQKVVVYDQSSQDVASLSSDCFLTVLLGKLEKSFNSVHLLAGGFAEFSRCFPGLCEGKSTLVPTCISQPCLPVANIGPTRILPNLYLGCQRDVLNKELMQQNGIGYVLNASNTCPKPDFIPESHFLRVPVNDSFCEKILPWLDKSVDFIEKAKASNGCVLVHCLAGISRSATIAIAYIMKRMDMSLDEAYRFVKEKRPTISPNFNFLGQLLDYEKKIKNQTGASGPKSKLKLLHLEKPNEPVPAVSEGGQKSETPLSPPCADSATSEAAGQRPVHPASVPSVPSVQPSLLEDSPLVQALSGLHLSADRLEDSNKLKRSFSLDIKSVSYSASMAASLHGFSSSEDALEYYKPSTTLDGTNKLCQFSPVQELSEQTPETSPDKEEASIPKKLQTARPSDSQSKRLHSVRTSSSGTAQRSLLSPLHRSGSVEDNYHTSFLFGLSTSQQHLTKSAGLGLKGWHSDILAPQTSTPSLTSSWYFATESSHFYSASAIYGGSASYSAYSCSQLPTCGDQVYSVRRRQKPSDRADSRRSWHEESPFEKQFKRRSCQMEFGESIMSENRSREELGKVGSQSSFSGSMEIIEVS
Put plainly: co-IP; HEK293T co-transfected with Myc-MKP7 full-length and HA-JNK1 (wild type or mutants), unstimulated; immunoprecipitation with anti-Myc, blot for HA.
(HA)-JNK1 D229A (human) (enzyme): the binding entry is on record as “no binding”. The same measure for (HA)-JNK1 I231D (human) (enzyme): “binds”; for (HA)-JNK1 W234D (human) (enzyme): “no binding”. For the substance (HA)-JNK1 Y259D (human) (enzyme), the binding result is given as “no binding”. Regarding (HA)-JNK1, wild type (human) (enzyme), the binding result is recorded as “binds”.
